Source: PMC4344780
These are yes or no findings as the source states them, for the method shown. Binding seen in cells or lysates may run through a third protein. Binding can be weak; no strength is given.

What was measured:
[1] = target: T1, Adipose triglyceride lipase (rat (endogenous in neonatal rat cardiomyocytes)) (UniProt P0C548); experiment: co-IP; lysates of primary rat cardiomyocytes, pre-cleared with protein A/G-agarose; incubated overnight at 4°C with anti-PEDF or anti-ATGL antibody in Hepes 50 mM pH 7.4, NaCl 150 mM, 10% glycerol, Triton X-100 1%, Nonidet P-40 0.5%; protein A-Sepharose CL-4B 2 h at 4°C; blotted for the other protein
T1 sequence: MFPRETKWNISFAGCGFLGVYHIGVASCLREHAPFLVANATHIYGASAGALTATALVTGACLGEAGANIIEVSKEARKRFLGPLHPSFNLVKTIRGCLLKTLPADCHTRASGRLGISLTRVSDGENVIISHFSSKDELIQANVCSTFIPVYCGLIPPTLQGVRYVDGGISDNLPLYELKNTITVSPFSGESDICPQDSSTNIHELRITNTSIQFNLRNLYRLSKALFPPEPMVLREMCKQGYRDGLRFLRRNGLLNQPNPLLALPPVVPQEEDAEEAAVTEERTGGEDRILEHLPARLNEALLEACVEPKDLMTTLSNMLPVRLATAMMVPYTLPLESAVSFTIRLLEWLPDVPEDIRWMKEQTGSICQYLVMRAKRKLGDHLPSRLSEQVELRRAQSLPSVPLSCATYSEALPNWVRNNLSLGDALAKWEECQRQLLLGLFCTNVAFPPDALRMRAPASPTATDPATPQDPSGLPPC

[2] = target: Pigment epithelium-derived factor (rat (endogenous in neonatal rat cardiomyocytes)); experiment: as above

| Molecule | binding [1] | binding [2] |
| --- | --- | --- |
| Pigment epithelium-derived factor | binds |  |
| Adipose triglyceride lipase (enzyme, UniProt P0C548 1-478) MFPRETKWNISFAGCGFLGVYHIGVASCLREHAPFLVANATHIYGASAGALTATALVTGACLGEAGANIIEVSKEARKRFLGPLHPSFNLVKTIRGCLLKTLPADCHTRASGRLGISLTRVSDGENVIISHFSSKDELIQANVCSTFIPVYCGLIPPTLQGVRYVDGGISDNLPLYELKNTITVSPFSGESDICPQDSSTNIHELRITNTSIQFNLRNLYRLSKALFPPEPMVLREMCKQGYRDGLRFLRRNGLLNQPNPLLALPPVVPQEEDAEEAAVTEERTGGEDRILEHLPARLNEALLEACVEPKDLMTTLSNMLPVRLATAMMVPYTLPLESAVSFTIRLLEWLPDVPEDIRWMKEQTGSICQYLVMRAKRKLGDHLPSRLSEQVELRRAQSLPSVPLSCATYSEALPNWVRNNLSLGDALAKWEECQRQLLLGLFCTNVAFPPDALRMRAPASPTATDPATPQDPSGLPPC |  | binds |
